# Assay results taken from PubChem BioAssay AID1347047 (National Center for Advancing Translational Sciences (NCATS), 2019).
# Protein sequences, listed by entry. Tags and fused reporters are not part of them.
# UniProt P08659, whole entry, looked up: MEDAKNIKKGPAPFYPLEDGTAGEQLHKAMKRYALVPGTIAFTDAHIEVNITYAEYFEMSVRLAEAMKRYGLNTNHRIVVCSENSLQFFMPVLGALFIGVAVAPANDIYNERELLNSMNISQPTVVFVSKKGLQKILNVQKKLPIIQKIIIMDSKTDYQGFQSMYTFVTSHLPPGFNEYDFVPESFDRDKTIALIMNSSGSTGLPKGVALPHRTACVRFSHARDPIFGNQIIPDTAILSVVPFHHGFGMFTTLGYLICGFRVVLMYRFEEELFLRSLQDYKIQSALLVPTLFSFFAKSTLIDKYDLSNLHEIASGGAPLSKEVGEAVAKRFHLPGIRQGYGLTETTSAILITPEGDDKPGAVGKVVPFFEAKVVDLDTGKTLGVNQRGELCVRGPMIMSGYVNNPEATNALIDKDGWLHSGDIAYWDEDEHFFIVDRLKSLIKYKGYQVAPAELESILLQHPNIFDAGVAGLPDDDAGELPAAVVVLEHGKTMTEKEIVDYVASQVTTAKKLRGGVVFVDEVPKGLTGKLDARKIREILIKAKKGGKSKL
# The whole screen tested about 1,400 compounds, of which about 10 (0.7%) were called active. The inconclusive results got no clear call from the source; some entries with a clear call stand among them for comparison. The call rests on the fitted dose curve; in most records, active means well fitted inhibition curve with a large enough effect; inconclusive means small, poorly fitted or top-dose-only effect; inactive means flat fitted curve, though single readings scatter. Where the call is inconclusive, the potency comes from a doubtful curve fit.
# Target: Luciferin 4-monooxygenase (Photinus pyralis) (UniProt P08659)
# Experiment: Natriuretic polypeptide receptor (hNpr1) antagonism - Confirmation firefly luciferase (FLuc) inhibition counterscreen; on activity change, negative = inhibition: 0% is about no effect
# Details: purified FLuc enzyme, luminescence, Km substrate; series mostly up to 57.6 µM; activity change, negative = inhibition: at the top concentration
# Text: Firefly (Photinus pyralis) luciferase (FLuc) is one of the more frequently used transcriptional reporter genes, and it has also been developed as a cellular sensor for cyclic nucleotides. (Fan F & Wood KV, 2007; Fan F et al., 2008) However, a significant number of compounds that populate chemical libraries have been identified as FLuc ligands which can be mistaken for modulators of the intended targeted pathways, receptors or enzymes. (Auld, DS et al. 2008; Thorne, N et al. 2012) Therefore, the FLuc enzyme assay conducted at sensitive Km level substrate conditions is used to counter-screen for potential FLuc ligands. Auld DS, Thorne N, Nguyen DT & Inglese J A specific mechanism for nonspecific activation in reporter-gene assays. ACS Chem Biol. 2008, 3: 463-470. DOI: 10.1021/cb8000793 Fan F, Binkowski BF, Butler BL, Stecha PF, Lewis MK, Wood KV. Novel genetically encoded biosensors using firefly luciferase. ACS Chem Biol. 2008, 3: 346-351. DOI: 10.1021/cb8000414 Fan F and Wood KV. Bioluminescent assays for high-throughput screening. Assay Drug Dev Technol. 2007, 5: 127-136. […] Chemistry & Biology, 2012, 19: 1060-1072. DOI.org/10.1016/j.chembiol.2012.07.015
# PROTOCOL TABLE (as described by Inglese J, Shamu CE and Guy RK. 2007) SEQUENCE No. (e.g., 1, 2, 3, etc.); PARAMETER (e.g., Cells, Incubation, Reagent, etc.); VALUE and DESCRIPTION. FLUC KM ENZYME COUNTERSCREEN (Thorne, N.T. et al. 2012) 1. Reagent. Add 3 uL of D-luciferin substrate buffer per well into Greiner 1536-well white/solid bottom high base, medium bind plates. 2. Compounds. Library compounds and PTC124 control added at 23nL per well, transferred by Pin Tool. 3. Incubation. Incubate plates at room temperature for […], protect from light. 4. Reagent. Add 1uL of P. pyralis luciferase (FLuc) per well of Greiner 1536-well plates. 5. Incubation. Incubate plates at room temperature for 10 min., protect from light. 6. Detector. FLuc luminescence measured using CCD-based camera (Viewlux). NOTES (numbers refer to Sequence numbers above) 1. Substrate buffer: 10 uM D-luciferin final concentration in 50 mM Tris-Acetate, pH 7.6, 10 mM Mg-Acetate, 10 uM ATP, 0.01% Tween-20, and 0.05% BSA buffer added at 3uL/well to 13 x Greiner 1536-well white/solid bottom high base, medium bind plates. 2. PTC124 stock solution prepared (10 mM in DMSO; Auld D.S. et al. 2010). Working dilution for dispense = 10 mM stock dilution (57.5 uM final concentration; 16-pt 1:3 titration in duplicate = final concentration range of 57.5 uM - 4 pM). 23nL of library compounds, PTC124 control or DMSO vehicle control transferred to the 13 substrate-containing Greiner white/solid bottom high base, medium bind plates in 11 interplate 1:3 titrations (see Yasgar, A. et al. 2008) with Pintool. 3. Substrate incubated for 30-50 min. at ambient temperature protected from light with metal lid. 4. Enzyme solution: 10 nM P. pyralis luciferase (FLuc) final concentration in 50 mM Tris-Acetate, pH 7.6 added at 1uL to 13 x Greiner 1536-well white/solid bottom high base, medium bind plates. 5. Substrate and enzyme incubated with test library compounds and controls for 10 min. at ambient temperature protected from light with metal lid. 6. Read final Luminescence on the ViewLux. [Exposure = 30 s.; Gain = High; Speed = Slow; and Binning = 2X.] REFERENCES: Auld DS, Lovell S, Thorne N, Lea WA, Maloney DJ, Shen M, Rai G, Battaile KP, Thomas CJ, Simeonov A, Hanzlik RP and Inglese J. Molecular basis for the high-affinity binding and stabilization of firefly luciferase by PTC124. […] Chemistry & Biology, 2012, 19: 1060-1072. doi.org/10.1016/j.chembiol.2012.07.015 Yasgar A, Shinn P, Jadhav A, Auld DS, Michael S, Zheng W, Austin CP, Inglese J and Simeonov A, Compound Management for Quantitative High-Throughput Screening. J. Assoc. Lab. Auto., 2008, 13: 79-89. doi: 10.1016/j.jala.2007.12.004
# Potency means the concentration at half of the fitted maximal effect.
Compound,"activity change, negative = inhibition",Potency
Cc1n[nH]c(C)c1Cc1ccc(C(=O)N2CCC(CCOc3ccc(F)cc3)C2)o1 (centres undefined),inactive: 6.6%,–
Cc1ccc(CN2CC(Oc3ccc(-c4noc(-c5cccnc5)n4)cc3)C2)o1,–,"inconclusive: 19.3 µM [inhibitor, partial curve]"
COC(=O)c1cccc(NC(=S)N[C@H]2CO[C@H]3[C@@H]2OC[C@H]3OC(=O)Nc2cccc(C(F)(F)F)c2)c1,inactive: -4.71%,–
CC(=O)Nc1ccc(S(=O)(=O)N[C@H]2CO[C@H]3[C@@H]2OC[C@H]3OC(=O)Nc2ccc(Oc3ccccc3)cc2)cc1,–,"inconclusive: 19.3 µM [inhibitor, partial curve]"
O=C(c1ccc(Cl)cc1)N1CCCC(n2cc(-c3nc(-c4ccccc4)no3)nn2)C1 (centres undefined),–,"inconclusive: 21.7 µM [inhibitor, partial curve]"
O=C(Cc1c[nH]c2ncc(-c3ccccc3F)cc12)N1CCOCC1,–,"inconclusive: 31.4 µM [inhibitor, partial curve]"
Cc1ccc(S(=O)(=O)NC[C@H]2O[C@H](Cc3cc(-c4cccc(O)c4)on3)CC[C@@H]2O)cc1,–,"inconclusive: 21.7 µM [inhibitor, partial curve]"
COc1ccc(-c2cnc3[nH]cc(CC(=O)Nc4cccnc4)c3c2)cc1,–,"inconclusive: 35.3 µM [inhibitor, partial curve]"
C[S+](=O)([O-])CCn1ncc2cc(OCc3cccc(-c4ccc(Cl)cc4)c3)ccc21,–,"inconclusive: 19.8 µM [inhibitor, full curve, poor fit]"
O=C(N[C@H]1CCN2C(=O)c3cc(-c4ccc(F)cc4F)ccc3NC(=O)[C@H]12)c1cccs1,–,"inconclusive: 21.7 µM [inhibitor, partial curve]"
Cn1cccc1CN1CCn2c(nn(-c3ccc(Cl)cc3)c2=O)C1,–,active: 13.7 µM
CC(C)Cc1cn(CC2CCCN(C(=O)c3n[nH]c4c3CCCC4)C2)nn1 (centres undefined),–,"inconclusive: 30.6 µM [inhibitor, single point]"
O=C(Nc1ccc(Cl)cc1)N1Cc2[nH]cnc2C[C@H]1c1nc(-c2ccccc2)no1,–,"inconclusive: 28 µM [inhibitor, partial curve]"
CN(C(=O)C1(c2ccc(Cl)cc2)CCOCC1)C1CCc2ccccc21 (centres undefined),inactive: 5.47%,–
O=C(Nc1ccc(Cl)cc1Cl)c1ccc2cc[nH]c2n1,–,active: 0.152 µM
O=Cc1ccccc1-c1cccc(O)c1,–,"inconclusive: 44.5 µM [inhibitor, partial curve]"
COc1cc(F)cc(-c2cnc3[nH]cc(CC(=O)NCc4cccnc4)c3c2)c1,–,"inconclusive: 31.4 µM [inhibitor, partial curve]"
O=C(c1ccc(F)c(Cl)c1)N1CCC(Cc2nc(-c3cnccn3)no2)CC1,inactive: -0.185%,–
CN(C)c1cccc(-c2cnc3[nH]cc(CC(=O)N4CCOCC4)c3c2)c1,–,"inconclusive: 35.3 µM [inhibitor, partial curve]"
COc1ccc(-n2nc3n(c2=O)CCN(Cc2cccn2C)C3)cc1,–,"inconclusive: 21.5 µM [inhibitor, partial curve]"
COc1ccc(CCC(=O)N2CCCC(n3cc(-c4nc(-c5ccccc5)no4)nn3)C2)cc1 (centres undefined),–,active: 12.2 µM
COc1ccc(-c2cc(C[C@@H]3CC[C@H](O)[C@@H](CNCc4ccccc4OC)O3)no2)cc1,–,"inconclusive: 31.4 µM [inhibitor, partial curve]"
CC(=O)NC1(C)CCCN(c2ccc(Oc3ccccc3)cc2)C1 (centres undefined),–,"inconclusive: 31.4 µM [inhibitor, partial curve]"
Cn1ccc2c(C(=O)NCc3cccnc3)nc(Nc3ccccc3)cc21,inactive: -24.3% [at 86.2 µM],–
O=C1c2cnc(-c3ccc(Cl)cc3)nc2OCCN1Cc1ccccc1,–,active: 2.5 µM
CCc1cccc(NC(=O)Cn2c(N(C)Cc3ccccc3)nc(C)cc2=O)c1,inactive: 0.479%,–
O=C(Nc1ccc(Cl)cc1)c1nc2c(o1)CCN(Cc1ccccc1)CC2,–,"inconclusive: 19.8 µM [inhibitor, partial curve]"

# Record cards (already shown). Order of values: activity change, negative = inhibition	Potency
# `CC(=O)Nc1ccc(S(=O)(=O)N[C@H]2CO[C@H]3[C@@H]2OC[C@H]3OC(=O)Nc2ccc(Oc3ccccc3)cc2)cc1` is listed with –	inconclusive: 19.3 µM [inhibitor, partial curve]
# `O=C(c1ccc(Cl)cc1)N1CCCC(n2cc(-c3nc(-c4ccccc4)no3)nn2)C1` (centres undefined) is listed with –	inconclusive: 21.7 µM [inhibitor, partial curve]

# Following part:

Compound,"activity change, negative = inhibition",Potency
O=C(c1ccc(F)cc1)N1CCCC(n2cc(-c3nc(-c4ccccc4)no3)nn2)C1 (centres undefined),–,"inconclusive: 19.3 µM [inhibitor, partial curve]"
CCc1noc(CC2CCOC3(CCN(S(=O)(=O)c4ccc(C(C)C)cc4)CC3)C2)n1 (centres undefined),inactive: -2.44%,–
O=C(Nc1ccc(F)cc1)c1ccc2cc[nH]c2n1,–,active: 0.886 µM
CNC(=O)CCn1ncc2cc(OCc3ccccc3-c3cccc(O)c3)ccc21,–,"inconclusive: 28 µM [inhibitor, partial curve]"
COCCN1CCOc2nc(-c3cc4ccccc4o3)ncc2C1=O,–,active: 0.498 µM
COc1ccc(Nc2cnc3ccc(-c4ccccc4OC)nn23)cc1OC,–,"inconclusive: 31.4 µM [inhibitor, partial curve]"
O=C(Nc1ccc(-c2cccc(F)c2)cc1)C1CCCN(C(=O)c2ccncc2)C1 (centres undefined),inactive: -15.3%,–
O=C(Cc1c[nH]c2ncc(-c3ccccc3)cc12)N1CCCC1,–,"inconclusive: 31.4 µM [inhibitor, partial curve]"
COc1ccc(CNC(=O)N2CCC(Oc3ccc(-c4noc(C5CC5)n4)cc3)C2)cc1 (centres undefined),–,"inconclusive: 21.7 µM [inhibitor, partial curve]"
COc1ccc(-c2cn3c(n2)CO[C@@H](CNS(=O)(=O)c2ccc(C)cc2)C3)cc1,–,"inconclusive: 17.7 µM [inhibitor, partial curve]"
CC(C)(C)c1csc(NC(=O)c2ccc3c(c2)OCCN(C2CCC2)C3)n1,–,"inconclusive: 28 µM [inhibitor, partial curve]"
Cn1cc(-c2ccc(O)c(F)c2)c2nc(COc3ccc(Cl)cc3)cn2c1=O,–,"inconclusive: 25 µM [inhibitor, partial curve]"
O=C(NCc1cccc(F)c1)c1csc(N2CCN(c3ccc(Cl)cc3)CC2)n1,inactive: 0.0429%,–
CCc1cc(N2CCOC(c3ccc4cc(OC)ccc4c3)C2)nc(C)n1 (centres undefined),–,"inconclusive: 19.3 µM [inhibitor, partial curve]"
COc1cc(F)cc(-c2cnc3[nH]cc(CC(=O)N4CCOCC4)c3c2)c1,–,"inconclusive: 35.3 µM [inhibitor, partial curve]"
OCC1CCCN(c2ccc(-c3nc(-c4cccc(C(F)(F)F)c4)no3)cn2)C1 (centres undefined),–,"inconclusive: 3.85 µM [inhibitor, full curve]"
O=C(Nc1ccc(Cl)cc1)c1cc2n(n1)CC(c1ccc(Cl)cc1)OC2 (centres undefined),inactive: -2.06%,–
COc1ccc(-c2noc([C@@H]3C[C@H](NS(=O)(=O)c4ccc5ccccc5c4)CN3C)n2)cc1,–,"inconclusive: 19.3 µM [inhibitor, partial curve]"
O=C(c1cccc2[nH]ccc12)N1CCCN(c2cc(-c3ccc(Cl)cc3)[nH]n2)CC1,–,"inconclusive: 24.3 µM [inhibitor, partial curve]"
O=C(Cc1c[nH]c2ncc(-c3ccc(Oc4ccccc4)cc3)cc12)N1CCOCC1,–,"inconclusive: 28 µM [inhibitor, partial curve]"
O=C(c1cc(F)ccc1F)N1CCCC(n2cc(-c3nc(-c4ccccc4)no3)nn2)C1 (centres undefined),–,"inconclusive: 17.2 µM [inhibitor, partial curve]"
COc1ccc(C(=O)Nc2ccc(-c3noc([C@@H]4CCCN4Cc4ccco4)n3)cn2)cc1,–,"inconclusive: 19.3 µM [inhibitor, partial curve]"
Fc1ccc(-c2cnc3n2C[C@H](CNCc2ccccc2Cl)OC3)cc1,inactive: -18.9% [at 86.2 µM],–
Nc1ncccc1CN1CCC2(CC1)COCCN2C(=O)OCc1ccccc1,inactive: 2.39% [at 86.2 µM],–
CCOc1ccc(CC(=O)N2CCC(Cc3nc(-c4ccc(OC)cc4)no3)CC2)cc1,inactive: -0.977%,–
COc1cccc(CN2CCC(Oc3ccccc3-c3nc(-c4ccncc4)no3)C2)c1 (centres undefined),–,"inconclusive: 19.3 µM [inhibitor, partial curve]"
CCC(O)C(=O)N1CCc2onc(-c3ccc(-c4ccccc4)cc3)c2C1 (centres undefined),–,"inconclusive: 21.7 µM [inhibitor, partial curve]"

# Some of these compounds in order of molecular weight, rising:
Compound,"activity change, negative = inhibition",Potency
CCC(O)C(=O)N1CCc2onc(-c3ccc(-c4ccccc4)cc3)c2C1 (centres undefined),–,"inconclusive: 21.7 µM [inhibitor, partial curve]"
OCC1CCCN(c2ccc(-c3nc(-c4cccc(C(F)(F)F)c4)no3)cn2)C1 (centres undefined),–,"inconclusive: 3.85 µM [inhibitor, full curve]"
COc1ccc(CCC(=O)N2CCCC(n3cc(-c4nc(-c5ccccc5)no4)nn3)C2)cc1 (centres undefined),–,active: 12.2 µM
